Results are given in words; binding and its absence hold for the method and conditions named. Binding seen in cells or lysates may run through a third protein. Some binding calls cover weakened binding; strength is not graded here. Where a sequence is shown, tags or fusion partners need not be part of it.

The target of the experiment is T1, Flag-tagged ULK1 (human) (UniProt O75385).
T1 sequence: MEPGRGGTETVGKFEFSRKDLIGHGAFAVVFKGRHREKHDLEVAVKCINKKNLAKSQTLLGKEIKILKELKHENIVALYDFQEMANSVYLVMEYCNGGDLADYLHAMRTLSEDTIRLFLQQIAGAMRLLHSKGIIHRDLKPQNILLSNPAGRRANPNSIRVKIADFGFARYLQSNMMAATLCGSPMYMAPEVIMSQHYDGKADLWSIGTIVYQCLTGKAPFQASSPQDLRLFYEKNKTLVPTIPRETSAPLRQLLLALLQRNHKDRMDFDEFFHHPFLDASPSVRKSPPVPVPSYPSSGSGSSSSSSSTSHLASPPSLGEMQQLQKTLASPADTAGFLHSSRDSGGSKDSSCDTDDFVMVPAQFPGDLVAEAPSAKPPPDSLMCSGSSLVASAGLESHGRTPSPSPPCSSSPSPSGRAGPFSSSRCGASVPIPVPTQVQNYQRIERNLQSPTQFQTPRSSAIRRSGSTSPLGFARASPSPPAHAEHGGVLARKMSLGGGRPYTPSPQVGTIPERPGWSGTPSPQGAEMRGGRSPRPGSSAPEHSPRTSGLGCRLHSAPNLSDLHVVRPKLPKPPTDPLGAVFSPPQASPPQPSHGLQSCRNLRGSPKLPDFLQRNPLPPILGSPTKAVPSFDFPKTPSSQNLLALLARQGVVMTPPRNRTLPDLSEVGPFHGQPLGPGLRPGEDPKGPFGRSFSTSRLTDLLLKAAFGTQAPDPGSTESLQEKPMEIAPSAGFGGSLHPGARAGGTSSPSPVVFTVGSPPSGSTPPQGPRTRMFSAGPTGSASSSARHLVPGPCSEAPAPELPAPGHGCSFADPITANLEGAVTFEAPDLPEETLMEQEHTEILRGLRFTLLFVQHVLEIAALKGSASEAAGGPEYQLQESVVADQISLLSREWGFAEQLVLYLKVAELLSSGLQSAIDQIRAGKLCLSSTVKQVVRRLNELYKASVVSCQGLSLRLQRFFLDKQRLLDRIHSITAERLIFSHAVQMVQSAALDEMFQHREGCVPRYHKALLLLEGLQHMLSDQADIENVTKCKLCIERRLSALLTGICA
As to the kind of experiment: co-IP; HEK293T cells co-transfected with Flag- and Myc-tagged plasmids; lysis in IP buffer (50 mM Tris-HCl, 150 mM NaCl, 1.0% NP-40); agarose-conjugated anti-Flag antibody overnight at 4 °C; immunoblot.

B1: Myc-tagged FBXO16 (protein, UniProt Q8IX29 1-292)
chain: MMAFAPPKNTDGPKMQTKMSTWTPLNHQLLNDRVFEERRALLGKWFDKWTDSQRRRILTGLLERCSLSQQKFCCRKLQEKIPAEALDFTTKLPRVLSLYIFSFLDPRSLCRCAQVCWHWKNLAELDQLWMLKCLRFNWYINFSPTPFEQGIWKKHYIQMVKELHITKPKTPPKDGFVIADVQLVTSNSPEEKQSPLSAFRSSSSLRKKNNSGEKALPPWRSSDKHPTDIIRFNYLDNRDPMETVQQGRRKRNQMTPDFSRQSHDKKNKLQDRTRLRKAQSMMSRRNPFPLCP
On to B1, for which the binding entry was “binds”.

Values taken from article PMC11464496.
